Laboratory results as given in patent US20220204479A1, “PYRIMIDINE COMPOUND AND PREPARATION METHOD THEREFOR” (Wuhan Humanwell Innovative Drug Research And Development …, priority 2019, published 2022).
Some entries share one result that the patent states for a list of compounds.

Target: T1, autotaxin (ATX) enzyme (Homo sapiens, UniProt Q13822)
T1 construct: purchased Cayman 700580
Assay: Autotaxin (ATX) enzyme activity inhibition test (Cayman Autotaxin Inhibitor Screening Assay Kit)
Assay type: biochemical
Conditions: comparison in words
Experimental: The inhibitory effects of the compounds on the autotaxin enzyme were detected using the Autotaxin Inhibitor Screening Assay Kit (Cayman, 700580). […] Subsequently, the 8 concentrations were diluted with Autotaxin Assay buffer (1×) provided in the kit into 19× compound working solutions (DMSO content was 1.9%). The Autotaxin Assay Reagent (10×) was taken out and diluted by 10 times with Autotaxin Assay Buffer (1×). The Autotaxin Substrate was taken out, dissolved by adding 1.2 mL of Autotaxin Assay Buffer (1×), mixed evenly and let stand by at room temperature. In a 96-well plate, 150 μL of Autotaxin Assay Buffer (1×), 10 μL of the prepared and diluted 19× compound working solution, 10 μL of Autotaxin Assay Reagent (1×), and 20 μL of the dissolved Autotaxin Substrate were added to each of the wells for each concentration, and homogenously mixed. The 96-well plate was shaken in a constant temperature shaker at 37° C. and incubated in the dark for 30 min, and then the plate was taken out and placed on a microplate reader to read OD405.

| SMILES | inhibitory activity on the ATX enzyme compared with control compound 1 |
| --- | --- |
| O=C(c1cnc(NC2Cc3ccc(F)cc3C2)nc1)N1CC2(CC(OCc3c[nH]nn3)C2)C1 (stereo not shown) [Compound I-10, (6-((1H-1,2,3-triazol-4-yl)methoxy)-2-azaspiro[3.3]heptan-2-yl)(2-((5-fluoro-2,3-dihydro-1H-inden-2-yl)amino)pyrimidin-5-yl)methanone] | superior over that of the control compound 1 |
| CC1CC(COCc2c[nH]nn2)CCN1C(=O)c1cnc(NC2Cc3ccccc3C2)nc1 (stereo not shown) [Compound I-5, (4-(((1H-1,2,3-triazol-4-yl)methoxy)methyl)-2-methylpiperidin-1-yl)(2-((2,3-dihydro-1H-inden-2-yl)amino)pyrimidin-5-yl)methanone] | superior over that of the control compound 1 |
| O=C(c1cnc(NC2Cc3ccccc3C2)nc1)N1CC2(CC(OCc3c[nH]nn3)C2)C1 [Compound I-9, (6-((1H-1,2,3-triazol-4-yl)methoxy)-2-azaspiro[3.3]heptan-2-yl)(2-((2,3-dihydro-1H-inden-2-yl)amino)pyrimidin-5-yl)methanone] | superior over that of the control compound 1 |
| O=C(c1cnc(NC2Cc3ccc(F)cc3C2)nc1)N1CCC(COCc2c[nH]nn2)CC1 (stereo not shown) [Compound I-7, (4-(((1H-1,2,3-triazol-4-yl)methoxy)methyl)piperidin-1-yl)(2-((5-fluoro-2,3-dihydro-1H-inden-2-yl)amino)pyrimidin-5-yl)methanone] | superior over that of the control compound 1 |
| O=C(c1cnc(NC2Cc3cc(F)c(F)cc3C2)nc1)N1CCC(COCc2c[nH]nn2)CC1 [Compound I-8, (4-(((1H-1,2,3-triazol-4-yl)methoxy)methyl)piperidin-1-yl)(2-((5,6-difluoro-2,3-dihydro-1H-inden-2-yl)amino)pyrimidin-5-yl)methanone] | superior over that of the control compound 1 |
| O=C(c1cnc(NC2Cc3ccccc3C2)nc1)N1CCC(COCc2c[nH]nn2)C(F)C1 (stereo not shown) [Compound I-6, (4-(((1H-1,2,3-triazol-4-yl)methoxy)methyl)-3-fluoropiperidin-1-yl)(2-((2,3-dihydro-1H-inden-2-yl)amino)pyrimidin-5-yl)methanone] | superior over that of the control compound 1 |
| O=C(c1cnc(NC2Cc3ccccc3C2)nc1)N1CCC(COCc2cn[nH]n2)CC1 [Compound I-1, (4-(((2H-1,2,3-triazol-4-yl)methoxy)methyl)piperidin-1-yl)(2-((2,3-dihydro-1H-inden-2-yl)amino)pyrimidin-5-yl)methanone] | superior over that of the control compound 1 |
